Experimental data: PubChem BioAssay AID504786 (Drosophila RNAi Screening Center, 2011)
Aim: 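Fly genes required for HIF-dependent transcription when hypoxia is mimicked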 (primary screen). System: Drosophila S2 cells with a stable HIF luciferase reporter. Reagent: long dsRNA against Drosophila genes, about 0.2 µg dsRNA per well of a 384-well plate. Duration: three days of knock-down, then 20 h of DFO before reading. Conditions: desferrioxamine (DFO) at 100 µM, an iron chelator that mimics hypoxia, for 20 h. Read-out: 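Firefly luciferase driven by the mouse ldh-a hypoxia-response element, measured after 20 h of 100 µM DFO; z-scores per plate, higher means more signal lost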. Scale: z-score: higher = stronger loss of HIF reporter signal.
The screen tested about 21,000 reagents; below is an unselected part of those with a known target gene and a result. 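Primary screen; positive scores mean lost reporter signal, so the sign may be inverted from the usual convention.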 A plus sign joins genes that one reagent is predicted to hit. Not all columns of the deposit are shown.

no.	Gene	amplicon	z-score, replicate 1
1	Hus1-like	DRSC12353	-0.4
2	CG34225	DRSC05270	-0.2
3	CG9536	DRSC03254	-0.4
4	CG11353	DRSC08182	-0.3
5	CG8785	DRSC07266	-0.4
6	CCT2	DRSC18415	0.3
7	CG31213	DRSC14312	0.8
8	CG31213	DRSC15647	0.2
9	Hcf	DRSC17143	-0.2
10	yip2	DRSC03640	-0.2
11	CG6287	DRSC02947	-0.3
12	Vps13D	DRSC09818	-0.2
13	Vps13D	DRSC09819	-0.2
14	Cpsf73	DRSC16291	1.4
15	Fa2h	DRSC06608	-0.2
16	Fa2h	DRSC06609	-0.3
17	CG14764	DRSC05072	0.2
18	CG14764	DRSC06498	-0.2
19	CG14764	DRSC06844	-0.3
20	wrm1	DRSC11007	-0.4
21	rec	DRSC14998	-0.2
22	rec	DRSC15656	-0.3
23	Gcat	DRSC09719	-0.4
24	CG9184	DRSC08636	-0.3
25	ver	DRSC10125	-0.1
26	CG13255	DRSC11702	-0.3
27	Muc26B	DRSC02322	-0.3
28	MFS1	DRSC04115	-0.2
29	oxt	DRSC08522	-0.2
30	5-HT1A	DRSC05030	0
31	CG34200	DRSC04804	0
32	CG6805	DRSC07011	-0.2
33	ppk23	DRSC20110	0
34	Gyc89Db	DRSC15009	-0.1
35	dpp	DRSC00118	-0.2
36	dpp	DRSC00121	0.2
37	dpp	DRSC00813	-0.3
38	CG13791 (retired record)	DRSC02295	0
39	mip120	DRSC06960	0.4
40	CG33116	DRSC02045	-0.3
41	CG8813	DRSC00706	-0.3
42	CR14033	DRSC02358	-0.4
43	shu	DRSC04484	-0.1
44	CG42514	DRSC10428	-0.1
45	CG4676	DRSC06879	0.2
46	CG3491	DRSC01934	-0.3
47	CG32856	DRSC13124	0.4
48	CG7568	DRSC16259	-0.3
49	Mi-2 + Su(Tpl)	DRSC09640	-0.2
50	CG33770	DRSC11717	-0.1
51	CG15373	DRSC19663	-0.2
52	Sodh2	DRSC16865	-0.3
53	CG8086	DRSC03078	-0.2
54	CG8086	DRSC03079	-0.3
55	CG17140 + CG17139	DRSC02585	-0.1
56	CG17140 + CG17139	DRSC02586	-0.2
57	CG32444	DRSC11677	-0.3
58	CG18304	DRSC02664	-0.2
59	Tspo	DRSC00533	-0.3
60	CG32214	DRSC09613	-0.3
61	Dtd	DRSC15362	-0.4
62	CG12851	DRSC04131	0.1
63	Dhx15	DRSC06036	0.8
64	Andorra	DRSC19475	-0.3
65	CG4278	DRSC02741	-0.3
66	kraken	DRSC00824	-0.2
67	CG9400	DRSC20182	-0.3
68	Gr2a	DRSC18603	-0.3
69	CG4324	DRSC04462	-0.1
70	Ir56c	DRSC06544	-0.2
71	Plekhm1	DRSC04527	-0.2
72	east	DRSC18770	-0.3
73	IntS12	DRSC15818	0.3
74	Su(var)3-7	DRSC16872	-0.2
75	fd19B	DRSC20688	-0.2
76	CG30047	DRSC05340	-0.2
77	CG33768	DRSC11715	0.2
78	CG15125	DRSC06547	-0.1
79	papi	DRSC00693	-0.3
80	CG7227	DRSC03032	-0.3
81	Meltrin	DRSC16274	-0.4
82	CG1324	DRSC20496	-0.1
83	CSN8	DRSC02257	1.2

Look-ups from above.
CG13791 (retired record) [DRSC02295], z-score, replicate 1: 0
Value for CG17140 + CG17139 [DRSC02585] in “z-score, replicate 1”: -0.1
CG13255 [DRSC11702], z-score, replicate 1 → -0.3
CG6805 [DRSC07011], z-score, replicate 1: -0.2
CG9400 [DRSC20182], z-score, replicate 1 = -0.3
Value for Fa2h [DRSC06609] under “z-score, replicate 1”: -0.3
